Key:
[1] = system: Hsp90 complexes in K562 cell extract; test: Nano-LC-MS/MS of PU-beads pull-downs; assay type: binding; details: protein identified in PU-beads pull-down of K562 extract, QSTAR-Elite QTof MS
In short: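 Proteins were identified by data-dependent nano LC-MS/MS (QTof, ESI) and Mascot searching (p<0.05), then reported as spectral counts and coverage via Scaffold. Inputs were PU-bead versus control-bead pull-downs from lysate pre-cleared with control beads overnight at 4 °C, eluted by boiling in 2% SDS.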

[2] = system: Hsp90 complexes in Mia-PaCa-2 cell extract; test: Nano-LC-MS/MS of PU-beads pull-downs; assay type: binding, human; details: protein identified in PU-beads pull-down of Mia-Paca 2 extract; QSTAR-Elite QTof MS
In short: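 They came from PU-bead pull-downs of pre-cleared lysates (control beads, overnight, 4 °C), eluted by boiling in 2% SDS, gel-separated and run by data-dependent nano-ESI QTof MS/MS.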

Molecule | Number of Assigned Spectra, K562 Prep 1 [1] | Number of Assigned Spectra, K562 Prep 2 [1] | Number of Assigned Spectra, Mia-Paca 2 [2]
PPP6R1 (protein, UniProt Q9UPN7 1-881, looked up) Serine/threonine-protein …: MFWKFDLHTSSHLDTLLEREDLSLPELLDEEDVLQECKVVNRKLLDFLLQPPHLQAMVAWVTQEPPDSGEERLRYKYPSVACEILTSDVPQINDALGADESLLNRLYGFLQSTGSLNPLLASFFSKVMGILINRKTDQLVSFLRKKDDFVDLLLQHIGTSAIMDLLLRLLTCVERPQLRQDVVNWLNEEKIVQRLIEQIHPSKDENQHSNASQSLCDIIRLSREQMIQVQDSPEPDQLLATLEKQETIEQLLSNMFEGEQSQSVIVSGIQVLLTLLEPRRPRSESVTVNSFFSSVDGQLELLAQGALESTVSSVGALHALRPRLSCFHQLLLEPPKLEPLQMTWGMLAPPLGNTRLHVVKLLASALSANDAALTHELLALDVPNTMLDLFFHYVFNNFLHAQVEGCVSTMLSLGPPPDSSPETPIQNPVVKHLLQQCRLVERILTSWEENDRVQCAGGPRKGYMGHLTRVAGALVQNTEKGPNAEQLRQLLKELPSEQQEQWEAFVSGPLAETNKKNMVDLVNTHHLHSSSDDEDDRLKEFNFPEEAVLQQAFMDFQMQRMTSAFIDHFGFNDEEFGEQEESVNAPFDKTANITFSLNADDENPNANLLEICYKDRIQQFDDDEEEEDEEEAQGSGESDGEDGAWQGSQLARGARLGQPPGVRSGGSTDSEDEEEEDEEEEEDEEGIGCAARGGATPLSYPSPGPQPPGPSWTATFDPVPTDAPTSPRVSGEEELHTGPPAPQGPLSVPQGLPTQSLASPPARDALQLRSQDPTPPSAPQEATEGSKVTEPSAPCQALVSIGDLQATFHGIRSAPSSSDSATRDPSTSVPASGAHQPPQTTEGEKSPEPLGLPQSQSAQALTPPPIPNGSAPEGPASPGSQ | 5 | 2 | 5
SERBP1 (protein, UniProt Q8NC51 2-408, looked up) SERPINE1 mRNA-binding protein …: PGHLQEGFGCVVTNRFDQLFDDESDPFEVLKAAENKKKEAGGGGVGGPGAKSAAQAAAQTNSNAAGKQLRKESQKDRKNPLPPSVGVVDKKEETQPPVALKKEGIRRVGRRPDQQLQGEGKIIDRRPERRPPRERRFEKPLEEKGEGGEFSVDRPIIDRPIRGRGGLGRGRGGRGRGMGRGDGFDSRGKREFDRHSGSDRSSFSHYSGLKHEDKRGGSGSHNWGTVKDELTESPKYIQKQISYNYSDLDQSNVTEETPEGEEHHPVADTENKENEVEEVKEEGPKEMTLDEWKAIQNKDRAKVEFNIRKPNEGADGQWKKGFVLHKSKSEEAHAEDSVMDHHFRKPANDITSQLEINFGDLGRPGRGGRGGRGGRGRGGRPNRGSRTDKSSASAPDVDDPEAFPALA | 0 | 6 | 16
PPP5C (protein, UniProt P53041 2-499, looked up) Serine/threonine-protein …: AMAEGERTECAEPPRDEPPADGALKRAEELKTQANDYFKAKDYENAIKFYSQAIELNPSNAIYYGNRSLAYLRTECYGYALGDATRAIELDKKYIKGYYRRAASNMALGKFRAALRDYETVVKVKPHDKDAKMKYQECNKIVKQKAFERAIAGDEHKRSVVDSLDIESMTIEDEYSGPKLEDGKVTISFMKELMQWYKDQKKLHRKCAYQILVQVKEVLSKLSTLVETTLKETEKITVCGDTHGQFYDLLNIFELNGLPSETNPYIFNGDFVDRGSFSVEVILTLFGFKLLYPDHFHLLRGNHETDNMNQIYGFEGEVKAKYTAQMYELFSEVFEWLPLAQCINGKVLIMHGGLFSEDGVTLDDIRKIERNRQPPDSGPMCDLLWSDPQPQNGRSISKRGVSCQFGPDVTKAFLEENNLDYIIRSHEVKAEGYEVAHGGRCVTVFSAPNYCDQMGNKASYIHLQGSDLRPQFHQFTAVPHPNVKPMAYANTLLQLGMM | 3 | 1 | 0
PPP2R1B (protein, UniProt P30154 2-601, looked up) Serine/threonine-protein …: AGASELGTGPGAAGGDGDDSLYPIAVLIDELRNEDVQLRLNSIKKLSTIALALGVERTRSELLPFLTDTIYDEDEVLLALAEQLGNFTGLVGGPDFAHCLLPPLENLATVEETVVRDKAVESLRQISQEHTPVALEAYFVPLVKRLASGDWFTSRTSACGLFSVCYPRASNAVKAEIRQQFRSLCSDDTPMVRRAAASKLGEFAKVLELDSVKSEIVPLFTSLASDEQDSVRLLAVEACVSIAQLLSQDDLETLVMPTLRQAAEDKSWRVRYMVADRFSELQKAMGPKITLNDLIPAFQNLLKDCEAEVRAAAAHKVKELGENLPIEDRETIIMNQILPYIKELVSDTNQHVKSALASVIMGLSTILGKENTIEHLLPLFLAQLKDECPDVRLNIISNLDCVNEVIGIRQLSQSLLPAIVELAEDAKWRVRLAIIEYMPLLAGQLGVEFFDEKLNSLCMAWLVDHVYAIREAATNNLMKLVQKFGTEWAQNTIVPKVLVMANDPNYLHRMTTLFCINALSEACGQEITTKQMLPIVLKMAGDQVANVRFNVAKSLQKIGPILDTNALQGEVKPVLQKLGQDEDMDVKYFAQEAISVLALA | 3 | 2 | 0
MTA2 (protein, UniProt O94776 1-668, looked up) Metastasis-associated protein …: MAANMYRVGDYVYFENSSSNPYLVRRIEELNKTANGNVEAKVVCLFRRRDISSSLNSLADSNAREFEEESKQPGVSEQQRHQLKHRELFLSRQFESLPATHIRGKCSVTLLNETDILSQYLEKEDCFFYSLVFDPVQKTLLADQGEIRVGCKYQAEIPDRLVEGESDNRNQQKMEMKVWDPDNPLTDRQIDQFLVVARAVGTFARALDCSSSIRQPSLHMSAAAASRDITLFHAMDTLQRNGYDLAKAMSTLVPQGGPVLCRDEMEEWSASEAMLFEEALEKYGKDFNDIRQDFLPWKSLASIVQFYYMWKTTDRYIQQKRLKAAEADSKLKQVYIPTYTKPNPNQIISVGSKPGMNGAGFQKGLTCESCHTTQSAQWYAWGPPNMQCRLCASCWIYWKKYGGLKTPTQLEGATRGTTEPHSRGHLSRPEAQSLSPYTTSANRAKLLAKNRQTFLLQTTKLTRLARRMCRDLLQPRRAARRPYAPINANAIKAECSIRLPKAAKTPLKIHPLVRLPLATIVKDLVAQAPLKPKTPRGTKTPINRNQLSQNRGLGGIMVKRAYETMAGAGVPFSANGRPLASGIRSSSQPAAKRQKLNPADAPNPVVFVATKDTRALRKALTHLEMRRAARRPNLPLKVKPTLIAVRPPVPLPAPSHPASTNEPIVLED | 14 | 12 | 3
TRMT112 (protein, UniProt Q9UI30 1-125, looked up) Multifunctional …: MKLLTHNLLSSHVRGVGSRGFPLRLQATEVRICPVEFNPNFVARMIPKVEWSAFLEAADNLRLIQVPKGPVEGYEENEEFLRTMHHLLLEVEVIEGTLQCPESGRMFPISRGIPNMLLSEEETES | 0 | 0 | 3
PPP2R2A (protein, UniProt P63151 2-447, looked up) Serine/threonine-protein …: AGAGGGNDIQWCFSQVKGAVDDDVAEADIISTVEFNHSGELLATGDKGGRVVIFQQEQENKIQSHSRGEYNVYSTFQSHEPEFDYLKSLEIEEKINKIRWLPQKNAAQFLLSTNDKTIKLWKISERDKRPEGYNLKEEDGRYRDPTTVTTLRVPVFRPMDLMVEASPRRIFANAHTYHINSISINSDYETYLSADDLRINLWHLEITDRSFNIVDIKPANMEELTEVITAAEFHPNSCNTFVYSSSKGTIRLCDMRASALCDRHSKLFEEPEDPSNRSFFSEIISSISDVKFSHSGRYMMTRDYLSVKIWDLNMENRPVETYQVHEYLRSKLCSLYENDCIFDKFECCWNGSDSVVMTGSYNNFFRMFDRNTKRDITLEASRENNKPRTVLKPRKVCASGKRKKDEISVDSLDFNKKILHTAWHPKENIIAVATTNNLYIFQDKVN | 9 | 1 | 5

Source: patent US20220074941A1, “HSP90 COMBINATION THERAPY” (Sloan-Kettering Institute for Cancer Research, priority 2011, published 2022)
